Laboratory results taken from PubChem BioAssay AID330 (DTP/NCI, 2004).
The list does not hold the whole screen: it is rich in T/C values a quarter to a half above the control, in often repeated tests (any T/C) and in doses without a T/C. Other doses and runs of a compound stand elsewhere. T/C gives the treated animals as a percentage of the vehicle group. Some doses have a count of surviving animals in place of a T/C: the source files T/C as zero there, which appears to mark a toxic dose or a test without result, not a measured value. Some doses without a T/C left all or most animals alive at the check, yet need not have been tolerated: survival well below the control is almost never listed, so the zero probably covers shortened survival too. Survivors were counted at the toxicity check, usually on the fifth day, unless a day is given; later deaths do not show. Schedule codes are those of the source, taken here to give the interval after Q, in days (D) or hours (H), and the number of doses after X. Signs of the kind (2×) stand for listed records that agree. Some entries hold several experiments; the results are listed from low to high. For survival time, the PubChem record calls one and a half times the control and up active, and a quarter to a half above the control has no call in these data; cut-offs in other NCI protocols can differ. Some T/C values are followed by the survivors on the day toxicity was checked, most often the fifth; without a count, all were alive then.

Tested on: P388 leukemia ip, CD2F1 mice, survival T/C
Assay: NCI In Vivo Anticancer Drug Screen. Data for tumor model P388 Leukemia (intraperitoneal) in CD2F1 (CDF1) mice
Details: T/C endpoint: median survival time, higher T/C = longer survival
[1] = dose: 200.0 mg/kg/injection, schedule: Q01DX005 (ip), vehicle: Klucel (hydroxypropylcellulose) (HPC)
[2] = dose: 25.0 mg/kg/injection, schedule: Q01DX005 (ip), vehicle: Klucel (hydroxypropylcellulose) (HPC)
[3] = dose: 50.0 mg/kg/injection, schedule: Q01DX005 (ip), vehicle: Klucel (hydroxypropylcellulose) (HPC)
[4] = dose: 100.0 mg/kg/injection, schedule: Q01DX005 (ip), vehicle: Klucel (hydroxypropylcellulose) (HPC)
[5] = dose: 50.0 mg/kg/injection, schedule: Q01DX009 (ip), vehicle: saline with Tween-80

## COC(=O)c1ncn(C2CCCCC2)c1N
dose: 25.0 mg/kg/injection, schedule: Q01DX005 (ip), vehicle: saline with Tween-80
  survivor count: 0 of 6
dose: 50.0 mg/kg/injection, schedule: Q01DX005 (ip), vehicle: saline with Tween-80
  survivor count: 0 of 6
dose: 100.0 mg/kg/injection, schedule: Q01DX005 (ip), vehicle: saline with Tween-80
  survivor count: 0 of 6
dose: 200.0 mg/kg/injection, schedule: Q01DX005 (ip), vehicle: saline with Tween-80
  survivor count: 0 of 6

## COc1ccc(C(Cc2ccccc2)NCCNCCO)cc1 (stereo unspecified)
[1]
  survivor count: 0 of 5

## C[OH2+].[Cl][Cu+].[Cl][Cu+].[NH-]CCC([OH2+])CC[NH-]
dose: 12.5 mg/kg/injection, schedule: Q01DX005 (ip), vehicle: Klucel (hydroxypropylcellulose) (HPC)
  survivor count: 0 of 6
[2]
  survivor count: 0 of 6
[3]
  survivor count: 0 of 6
[4]
  survivor count: 0 of 6
[1]
  survivor count: 0 of 6

## CCCC(=O)Nc1cc2c3c(c1)CCCN3CCC2
[5]
  survivor count: 3 of 6

## CS(=O)CCCN=C=S (stereo unspecified)
dose: 150.0 mg/kg/injection, schedule: Q01DX009 (ip), vehicle: saline with Tween-80
  survivor count: 5 of 6
dose: 300.0 mg/kg/injection, schedule: Q01DX009 (ip), vehicle: saline with Tween-80
  survivor count: 0 of 6

## CS(=O)(=O)C(=C1C(=O)NC(=O)NC1=O)S(C)(=O)=O
[4]
  survivor count: 4 of 6
[1]
  survivor count: 0 of 6

## CC1CC(C)CC(C)C(O)/C(C#N)=C/C=C/CC(C2CCCC2C(=O)O)OC(=O)CC(O)C(C)C1 (stereo unspecified)
dose: 0.12 mg/kg/injection, schedule: Q01DX009 (ip), vehicle: saline with Tween-80
  T/C: 127 % of control
dose: 0.25 mg/kg/injection, schedule: Q01DX009 (ip), vehicle: Klucel (hydroxypropylcellulose) (HPC)
  T/C: 140 % of control (2×)
dose: 0.25 mg/kg/injection, schedule: Q01DX009 (ip), vehicle: saline with Tween-80
  T/C: 132 % of control
dose: 0.5 mg/kg/injection, schedule: Q01DX009 (ip), vehicle: saline with Tween-80
  T/C: 142 % of control
dose: 0.78 mg/kg/injection, schedule: Q01DX009 (ip), vehicle: Klucel (hydroxypropylcellulose) (HPC)
  T/C: 129 % of control
dose: 1.0 mg/kg/injection, schedule: Q01DX009 (ip), vehicle: Klucel (hydroxypropylcellulose) (HPC)
  T/C: 145 % of control (2×)
dose: 1.0 mg/kg/injection, schedule: Q01DX009 (ip), vehicle: saline with Tween-80
  T/C: 142 % of control [5 of 6 alive]
dose: 1.56 mg/kg/injection, schedule: Q01DX009 (ip), vehicle: Klucel (hydroxypropylcellulose) (HPC)
  T/C: 147 % of control
dose: 2.0 mg/kg/injection, schedule: Q01DX009 (ip), vehicle: Klucel (hydroxypropylcellulose) (HPC)
  survivor count: 3 of 6
dose: 2.0 mg/kg/injection, schedule: Q01DX009 (ip), vehicle: saline with Tween-80
  T/C: 142 % of control
dose: 3.13 mg/kg/injection, schedule: Q01DX009 (ip), vehicle: Klucel (hydroxypropylcellulose) (HPC)
  T/C: 136 % of control
dose: 4.0 mg/kg/injection, schedule: Q01DX009 (ip), vehicle: Klucel (hydroxypropylcellulose) (HPC)
  survivor count: 0 of 6 and 1 of 6 (3×)
dose: 6.25 mg/kg/injection, schedule: Q01DX009 (ip), vehicle: Klucel (hydroxypropylcellulose) (HPC)
  survivor count: 0 of 6
dose: 8.0 mg/kg/injection, schedule: Q01DX009 (ip), vehicle: Klucel (hydroxypropylcellulose) (HPC)
  survivor count: 1 of 6 (3×)
dose: 12.5 mg/kg/injection, schedule: Q01DX009 (ip), vehicle: Klucel (hydroxypropylcellulose) (HPC)
  survivor count: 0 of 6
dose: 25.0 mg/kg/injection, schedule: Q01DX009 (ip), vehicle: Klucel (hydroxypropylcellulose) (HPC)
  survivor count: 0 of 6

## COc1cc2c(cc1OC)C(=O)Nc1nc(N)nc(N)c1C2
dose: 400.0 mg/kg/injection, schedule: Q01DX001 (ip), vehicle: saline with Tween-80
  T/C: 141 % of control

## CC1(C)N=C(N)N=C(N)N1c1ccc(OCC(=O)N2CCOCC2)c(Cl)c1
dose: 6.25 mg/kg/injection, schedule: Q01DX009 (ip), vehicle: saline
  survivor count: 6 of 6
dose: 12.5 mg/kg/injection, schedule: Q01DX009 (ip), vehicle: saline
  survivor count: 6 of 6
dose: 25.0 mg/kg/injection, schedule: Q01DX009 (ip), vehicle: saline
  survivor count: 6 of 6
dose: 50.0 mg/kg/injection, schedule: Q01DX009 (ip), vehicle: saline
  survivor count: 5 of 6
dose: 66.0 mg/kg/injection, schedule: Q01DX009 (ip), vehicle: saline sonified
  T/C: 130 % of control
dose: 100.0 mg/kg/injection, schedule: Q01DX009 (ip), vehicle: saline sonified
  T/C: 130 % of control
dose: 100.0 mg/kg/injection, schedule: Q01DX009 (ip), vehicle: saline
  survivor count: 6 of 6
dose: 150.0 mg/kg/injection, schedule: Q01DX009 (ip), vehicle: saline sonified
  T/C: 130 % of control
dose: 200.0 mg/kg/injection, schedule: Q01DX009 (ip), vehicle: saline
  survivor count: 0 of 6 and 1 of 6
dose: 200.0 mg/kg/injection, schedule: Q04DX003 (ip), vehicle: saline sonified
  survivor count: 3 of 6
dose: 400.0 mg/kg/injection, schedule: Q04DX003 (ip), vehicle: saline sonified
  survivor count: 1 of 6

## C[n+]1c(-c2cccc(-c3ccccc3)c2)c2cc(N)ccc2c2ccccc21
dose: 0.78 mg/kg/injection, schedule: Q01DX009 (ip), vehicle: water
  T/C: 129 % of control
dose: 1.56 mg/kg/injection, schedule: Q01DX009 (ip), vehicle: water
  T/C: 129 % of control
dose: 3.13 mg/kg/injection, schedule: Q01DX009 (ip), vehicle: other
  T/C: 137 % of control
dose: 3.13 mg/kg/injection, schedule: Q01DX009 (ip), vehicle: water
  T/C: 132 % of control
dose: 6.25 mg/kg/injection, schedule: Q01DX009 (ip), vehicle: other
  T/C: 134 % of control
dose: 6.25 mg/kg/injection, schedule: Q01DX009 (ip), vehicle: water
  T/C: 137 % of control
dose: 12.5 mg/kg/injection, schedule: Q01DX009 (ip), vehicle: other
  survivor count: 6 of 6
dose: 12.5 mg/kg/injection, schedule: Q01DX009 (ip), vehicle: water
  survivor count: 5 of 6
dose: 25.0 mg/kg/injection, schedule: Q01DX009 (ip), vehicle: other
  survivor count: 5 of 6

## CCCCOC(=O)/C=C(\Br)C(=O)OCCCC
dose: 25.0 mg/kg/injection, schedule: Q01DX009 (ip), vehicle: saline with Tween-80
  T/C: 126 % of control
[5]
  T/C: 126 % of control
dose: 100.0 mg/kg/injection, schedule: Q01DX009 (ip), vehicle: saline with Tween-80
  T/C: 146 % of control
dose: 200.0 mg/kg/injection, schedule: Q01DX009 (ip), vehicle: saline with Tween-80
  survivor count: 0 of 6

## Cc1ccc2[nH]c3c(c2c1)-c1ncncc1CC3
dose: 400.0 mg/kg/injection, schedule: Q04DX002 (ip), vehicle: Klucel (hydroxypropylcellulose) (HPC)
  survivor count: 1 of 5

## C=C1C(=O)OC2/C=C(\C=O)C3OC3C3OC3(C)CC(OC(=O)/C(=C/C)CO)C12 (stereo unspecified)
[2]
  survivor count: 2 of 6
[3]
  survivor count: 0 of 6
[4]
  survivor count: 0 of 6
[1]
  survivor count: 0 of 6
